Reference: PMC10901781

Sequences of proteins named here, by UniProt entry; tags and fusion partners are left off. A change or cut given only in a name is not applied to a line headed by its entry.
UniProt Q01196: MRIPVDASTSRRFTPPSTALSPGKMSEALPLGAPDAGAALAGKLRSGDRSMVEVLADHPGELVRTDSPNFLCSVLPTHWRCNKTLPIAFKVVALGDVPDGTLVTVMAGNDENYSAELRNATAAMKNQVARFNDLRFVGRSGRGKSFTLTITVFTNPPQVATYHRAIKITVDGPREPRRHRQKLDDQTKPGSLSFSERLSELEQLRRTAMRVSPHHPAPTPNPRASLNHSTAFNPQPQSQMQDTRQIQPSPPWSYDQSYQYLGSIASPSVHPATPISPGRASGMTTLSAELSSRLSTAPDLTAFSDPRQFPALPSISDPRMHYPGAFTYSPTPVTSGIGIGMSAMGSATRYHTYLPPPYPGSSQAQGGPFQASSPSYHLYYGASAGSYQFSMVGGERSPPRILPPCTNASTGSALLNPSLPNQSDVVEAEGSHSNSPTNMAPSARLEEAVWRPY

Target: RUNX1 with Runt domain mutation (primary AML samples) (human (endogenous in primary AML cells)) (UniProt Q01196)
Assay: co-IP; IP and western blot of primary AML samples with wild-type RUNX1 or with a Runt domain mutation

B1: PHF6 (primary AML samples) (protein, UniProt Q8IWS0 1-365)
chain: MSSSVEQKKGPTRQRKCGFCKSNRDKECGQLLISENQKVAAHHKCMLFSSALVSSHSDNESLGGFSIEDVQKEIKRGTKLMCSLCHCPGATIGCDVKTCHRTYHYHCALHDKAQIREKPSQGIYMVYCRKHKKTAHNSEADLEESFNEHELEPSSPKSKKKSRKGRPRKTNFKGLSEDTRSTSSHGTDEMESSSYRDRSPHRSSPSDTRPKCGFCHVGEEENEARGKLHIFNAKKAAAHYKCMLFSSGTVQLTTTSRAEFGDFDIKTVLQEIKRGKRMKCTLCSQPGATIGCEIKACVKTYHYHCGVQDKAKYIENMSRGIYKLYCKNHSGNDERDEEDEERESKSRGKVEIDQQQLTQQQLNGN
Q: How did the binding turn out when B1 was run?
A: binds

Results are given in words; binding and its absence hold for the method and conditions named. In cells and extracts the contact can be indirect. A result given as binding can be weak or reduced; the word gives no strength.
